In PMC9075623:
These are yes or no findings as the source states them, for the method shown. Binding seen in cells or lysates may run through a third protein. A result given as binding can be weak or reduced; the word gives no strength. Where a sequence is shown, tags or fusion partners need not be part of it.

Target: V5-tagged full-length human TSPO^A147T (A147T polymorphism variant) (human)
Assay: co-IP; U87MG cells overexpressing V5-tagged TSPO^WT, TSPO^A147T or pcDNA together with the Myc-tagged partner; IP with V5 antibody, immunoblot for myc and V5

binding | Binder
binds | Myc-tagged 14-3-3 protein subunit theta (YWHAQ) (protein, UniProt P27348 1-245) MEKTELIQKAKLAEQAERYDDMATCMKAVTEQGAELSNEERNLLSVAYKNVVGGRRSAWRVISSIEQKTDTSDKKLQLIKDYREKVESELRSICTTVLELLDKYLIANATNPESKVFYLKMKGDYFRYLAEVACGDDRKQTIDNSQGAYQEAFDISKKEMQPTHPIRLGLALNFSVFYYEILNNPELACTLAKTAFDEAIAELDTLNEDSYKDSTLIMQLLRDNLTLWTSDSAGEECDAAEGAEN
no binding | Myc-tagged 14-3-3 protein subunit eta (YWHAH) (protein, UniProt Q04917 1-246) MGDREQLLQRARLAEQAERYDDMASAMKAVTELNEPLSNEDRNLLSVAYKNVVGARRSSWRVISSIEQKTMADGNEKKLEKVKAYREKIEKELETVCNDVLSLLDKFLIKNCNDFQYESKVFYLKMKGDYYRYLAEVASGEKKNSVVEASEAAYKEAFEISKEQMQPTHPIRLGLALNFSVFYYEIQNAPEQACLLAKQAFDDAIAELDTLNEDSYKDSTLIMQLLRDNLTLWTSDQQDEEAGEGN
